Test results reported in PMC12442639, “A Two‐Protein Chemoreceptor Complex Regulates Oxygen Thresholds in Bacterial Magneto‐Aerotaxis” (Advanced Science, 2025).
Results are given in words; binding and its absence hold for the method and conditions named. Some binding calls cover weakened binding; strength is not graded here.

Biological target: CetA2 (two-hybrid fusion protein) (Magnetospirillum gryphiswaldense)
Assay: two-hybrid; adenylate cyclase-based bacterial two-hybrid assay in E. coli; T18 and T25 fusions; blue colony colour on lactose and X-Gal-containing mineral salts agar; at least three cotransformants per tested interaction

binding | Substance
binds | CetA2 (two-hybrid fusion protein) (from UniProt A0ACM8UKD1 1-436) (receptor)
binds | CetB2 (two-hybrid fusion protein) (from UniProt A0ACM8ULG3 1-174)
